Experimental data: PMC4686657
The exact form of at least one protein or probe is not confirmed. Where cells or extracts were used, other partners may take part. Weaker means in comparison with the reference protein, sequence or condition of that experiment. At least one verdict rests on a figure or table, not on a statement of the authors.

Sequences of proteins named here, by UniProt entry; tags and fusion partners are left off. A change or cut given only in a name is not applied to a line headed by its entry.
UniProt Q61501: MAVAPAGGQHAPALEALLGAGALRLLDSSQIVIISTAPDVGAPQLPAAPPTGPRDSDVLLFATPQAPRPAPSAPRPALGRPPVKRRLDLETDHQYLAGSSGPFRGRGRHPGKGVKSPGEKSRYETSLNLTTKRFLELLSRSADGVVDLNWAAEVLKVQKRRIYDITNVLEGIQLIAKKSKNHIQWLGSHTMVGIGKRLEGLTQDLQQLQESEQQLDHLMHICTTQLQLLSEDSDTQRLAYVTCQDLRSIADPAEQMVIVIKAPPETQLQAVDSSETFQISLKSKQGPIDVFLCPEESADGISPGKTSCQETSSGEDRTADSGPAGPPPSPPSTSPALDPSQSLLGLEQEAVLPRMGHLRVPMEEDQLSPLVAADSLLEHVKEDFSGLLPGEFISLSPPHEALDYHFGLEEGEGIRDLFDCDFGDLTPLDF
UniProt O35261: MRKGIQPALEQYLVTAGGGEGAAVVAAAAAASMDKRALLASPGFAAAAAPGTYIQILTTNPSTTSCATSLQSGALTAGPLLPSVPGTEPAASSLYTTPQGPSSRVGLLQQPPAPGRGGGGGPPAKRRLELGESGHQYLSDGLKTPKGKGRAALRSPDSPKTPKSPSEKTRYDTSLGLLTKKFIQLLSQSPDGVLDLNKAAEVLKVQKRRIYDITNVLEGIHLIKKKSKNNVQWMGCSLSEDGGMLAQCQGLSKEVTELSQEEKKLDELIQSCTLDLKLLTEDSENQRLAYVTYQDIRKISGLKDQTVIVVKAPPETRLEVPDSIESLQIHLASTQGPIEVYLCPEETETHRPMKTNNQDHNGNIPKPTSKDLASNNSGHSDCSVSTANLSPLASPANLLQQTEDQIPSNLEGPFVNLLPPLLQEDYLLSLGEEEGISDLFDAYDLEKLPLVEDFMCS

Legend:
[1] = molecular target: E2f1 (endogenous, TKO HCC nuclear extract) (Mus musculus (TKO HCC cells)) (UniProt Q61501); assay: EMSA; conditions: EMSA: 20 mM HEPES, 10 mM KCl, 0.2 mM EDTA, 10% glycerol, 5 mM DTT (7 ul Binding Buffer D in 20 ul), 50 ng poly dI:dC, 0.15% NP-40, 1 ug BSA, 5 ug nuclear extract, protein in an extract, label: biotin
[2] = molecular target: E2f3 (endogenous, TKO HCC nuclear extract) (Mus musculus (TKO HCC cells)) (UniProt O35261); assay: EMSA; conditions: EMSA: 20 mM HEPES, 10 mM KCl, 0.2 mM EDTA, 10% glycerol, 5 mM DTT (7 ul Binding Buffer D in 20 ul), 50 ng poly dI:dC, 0.15% NP-40, 1 ug BSA, 5 ug nuclear extract, protein in an extract, label: biotin
[3] = less intense than early consensus

Sequence	binding result [1, 3]	binding result [2, 3]	binding result ([1]; similar to early consensus)	binding result ([2]; similar to early consensus)
CAGGCGACAGCGGCGCGGAACGCAG (double strand) [Pfkl probe]	binds more weakly	binds more weakly		
CAGGCTTTTTCGGCGCGGAACGCAG (double strand) [Pfkl T-stretch probe]			binds	binds
